Laboratory results as given in publication PMC6411202.
Results are given in words; binding and its absence hold for the method and conditions named. In cells and extracts the contact can be indirect. Some entries that bind do so weakly or less than the wild type.

Amino acid sequences for entries named in this document (tags omitted).
UniProt Q92597: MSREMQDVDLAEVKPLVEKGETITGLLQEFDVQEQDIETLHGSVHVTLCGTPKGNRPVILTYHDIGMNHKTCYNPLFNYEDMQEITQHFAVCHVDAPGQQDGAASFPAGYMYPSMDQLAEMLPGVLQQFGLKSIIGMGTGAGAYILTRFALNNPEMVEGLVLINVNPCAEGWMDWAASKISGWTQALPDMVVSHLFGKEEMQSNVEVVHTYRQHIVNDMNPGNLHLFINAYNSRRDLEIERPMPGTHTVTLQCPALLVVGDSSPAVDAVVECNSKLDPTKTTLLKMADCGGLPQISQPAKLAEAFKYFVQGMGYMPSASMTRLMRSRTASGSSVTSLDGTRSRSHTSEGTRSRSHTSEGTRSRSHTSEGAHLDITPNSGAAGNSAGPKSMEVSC
UniProt P12004: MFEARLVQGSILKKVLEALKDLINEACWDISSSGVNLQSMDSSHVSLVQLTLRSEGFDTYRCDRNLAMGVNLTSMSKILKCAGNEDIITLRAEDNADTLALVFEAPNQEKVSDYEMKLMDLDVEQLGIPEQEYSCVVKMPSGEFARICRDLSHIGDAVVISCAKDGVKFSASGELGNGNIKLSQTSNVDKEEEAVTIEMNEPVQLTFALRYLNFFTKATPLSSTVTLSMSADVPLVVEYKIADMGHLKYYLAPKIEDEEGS

Key:
[1] = target: GST-fused full-length NDRG1 (1-394 aa) (human (cDNA from HEK293T)) (UniProt Q92597); experiment: pull-down; GST-fused full-length NDRG1 on glutathione beads incubated with in vitro translated PCNA in RIPA buffer for 12 hr; western blot; only the target purified
[2] = target: Strep-Flag-tagged NDRG1, transfected in HEK293T cells (human (cDNA from HEK293T)) (UniProt Q92597); experiment: co-IP; HEK293T transfected with Strep-Flag-NDRG1 and pcDNA3.1-PCNA (Fig 5C), or with these and HA-LANA (Fig 6C); M2-Flag beads; RIPA buffer (50 mM Tris-HCl pH 7.4, 150 mM NaCl, 0.5% Triton X-100); western blot

“in vitro translated PCNA (from UniProt P12004 1-261)” was tested, and the binding [1] was “binds”.

In the case of “PCNA from pcDNA3.1-PCNA, transfected in HEK293T cells (from UniProt P12004 1-261)”, the binding [2] is reported as “binds”.
